Test results as given in publication PMC2871791.
Results are given in words; binding and its absence hold for the method and conditions named. Sequences can lack the tags named with a protein.

Legend:
Test in all cases: two-hybrid; LexA system in S. cerevisiae DY1 with β-galactosidase reporter pSH18-34; integrin cytoplasmic domains in pEG202, kermit2 constructs in pJG4-6; prey induced 6 hours in galactose/raffinose; quantified with ONPG, normalised to a positive control
[1] = target: T1, Xenopus integrin α5 cytoplasmic domain, yeast two-hybrid fusion (Xenopus laevis)
T1 sequence: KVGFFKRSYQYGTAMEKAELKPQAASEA

[2] = target: T2, Xenopus integrin α6 cytoplasmic domain, yeast two-hybrid fusion (Xenopus laevis)
T2 sequence: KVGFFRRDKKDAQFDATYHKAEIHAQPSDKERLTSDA

[3] = target: T3, Xenopus integrin αV cytoplasmic domain, yeast two-hybrid fusion (Xenopus laevis)
T3 sequence: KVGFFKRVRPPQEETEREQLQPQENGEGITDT

binding [1]: no binding | binding [2]: no binding | binding [3]: no binding
Substance: kermit2mut (PDZ domain ALGL altered), yeast two-hybrid fusion (Xenopus laevis)
